In PMC11597642, “Discovery of New 3-(Benzo[b]Thiophen-2-yl)Pyrrolidine-2,5-Dione Derivatives as Potent Antiseizure and Antinociceptive Agents—In Vitro and In Vivo Evaluation” (Pharmaceuticals, 2024):

Columns and labels:
[1] = test system: T1, L-type Ca2+ channel (dihydropyridine site); assay: radioligand displacement, [3H]nitrendipine; details: 100 µM, rat cerebral cortex preparation, in duplicate (Cerep)
T1 construct: gene Cacna1c

[2] = test system: T2, voltage-sensitive sodium channel (site 2); format: binding; details: 100 µM, rat cerebral cortex preparation, in duplicate (Cerep)
T2 construct: gene Scn1a; native preparation from rat cerebral cortex; subtype not defined

Row | Compound | L-Type Ca^2+ Channel / % Inhibition of Control Specific Binding [1] | Na^+ Channel (Site 2) / % Inhibition of Control Specific Binding [2]
1 | O=C1CC(c2cc3ccccc3s2)C(=O)N1CCN1CCOCC1 (stereo not shown) [compound 32, 3-(Benzo[b]thiophen-2-yl)-1-(2-morpholinoethyl)pyrrolidine-2,5-dione hydrochloride] | 28.2% | 15.8%
2 | O=C1CC(c2cc3ccccc3s2)C(=O)N1CCCN1CCOCC1 (stereo not shown) [compound 33, 3-(Benzo[b]thiophen-2-yl)-1-(3-morpholinopropyl)pyrrolidine-2,5-dione hydrochloride] | 12.2% | 62.2%

Where a name gives a salt, the structure may show the parent alone.
